Reference: PubChem BioAssay AID1439 (NMMLSC, 2008)
About 770 (0.35%) of roughly 220,000 compounds were called active. The inconclusive results got no clear call from the source; some entries with a clear call stand among them for comparison. Cut-off read from the data, not from the text of the source: active = binding response below about 49% or above about 150%; inconclusive = no clear call, values can overlap the other calls; inactive = in between.

Amino acid sequences for entries named in this document (tags omitted).
UniProt P09471, whole entry, looked up: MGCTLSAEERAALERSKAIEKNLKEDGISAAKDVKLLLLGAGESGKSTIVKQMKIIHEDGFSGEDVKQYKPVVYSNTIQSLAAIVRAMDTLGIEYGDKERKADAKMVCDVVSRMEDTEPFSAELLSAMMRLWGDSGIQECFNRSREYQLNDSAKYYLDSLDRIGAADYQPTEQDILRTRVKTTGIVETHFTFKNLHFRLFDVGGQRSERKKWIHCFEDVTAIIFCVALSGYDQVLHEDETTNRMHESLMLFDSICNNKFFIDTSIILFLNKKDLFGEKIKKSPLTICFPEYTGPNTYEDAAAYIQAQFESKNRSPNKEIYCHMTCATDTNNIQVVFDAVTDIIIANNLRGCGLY

Each compound was assayed against Guanine nucleotide-binding protein G(o) subunit alpha (Homo sapiens) (UniProt P09471) (assay: RGS7-Galphao binding modulators, primary screen, biochemical, multiplexed bead flow cytometry (AID 1439;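 note: fluorescent Galphao held in activated GDP-AlF4 state binding bead-coupled RGS7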)). Conditions: at 10 µM, actives lie on both sides.

Structure (SMILES) | binding response (% of control)
CC(=O)c1c(COC(=O)c2ccc(C)cc2)nc2ccccc2[n+]1[O-] | inconclusive: 134%
Cc1c(N(C(=O)CNC(=O)c2ccccc2)C2(C(=O)NC3CCCCC3)CCCCC2)c(=O)n(-c2ccccc2)n1C | inactive: 101%
COc1cccc(/C=C/C(=O)NCc2cn3cc(Cl)ccc3n2)c1 | inconclusive: 96.6%
COC(=O)/C(=C(/F)Sc1cc(C)c(O)c(C)c1)C(F)(F)F | inactive: 102%
Cc1cccc(-c2c3c(=O)n(C)c(=O)n(C)c3cn2CC2CCCO2)c1 (stereo not drawn) | inactive: 99%
Cc1csc(C(=O)O)c1NC(=O)c1cccc([N+](=O)[O-])c1 | inconclusive: 103%
CS(=O)(=O)c1ccc(C(=O)OCC(=O)NC(=O)C2CCCCC2)cc1[N+](=O)[O-] | inconclusive: 94.4%
CCN(CC)CCCNC(=O)C(C)n1c2ccccc2c2nc(=O)cc(C)n21 (stereo not drawn) | inconclusive: 104%
CC(=O)c1c(C)[nH]c(C(=O)OCc2ccccc2F)c1C | inactive: 105%
C=CCC1CCCCC12NC(=O)N(c1ccccc1)N2 (stereo not drawn) | inconclusive: 95%
Cc1nc(-c2ccc(S(=O)(=O)Oc3ccc(Cl)cc3Cl)s2)cs1 | inconclusive: 92.8%
COc1ccc(NS(=O)(=O)c2cc(NC(=O)[C@@H](NC(N)=O)C(C)C)ccc2C)cc1 | inconclusive: 88.6%
CC(=O)Nc1cc[n+](CC(=O)c2ccc(Cl)cc2)cc1 | inconclusive: 432%
O=[N+]([O-])c1cc(S(=O)(=O)NC2=NCCCCC2)ccc1NCC1CCCCC1 | inactive: 105%
COc1ccccc1C1CCN(c2ccc(CO)cc2[N+](=O)[O-])CC1 | inconclusive: 106%
C=CCn1c(CCC(O)COCCCCC)n[nH]c1=S (stereo not drawn) | inconclusive: 98.6%
CCc1cc2c(=O)c(-c3cnn(-c4ccccc4)c3)c(C)oc2cc1OCC(=O)Nc1cccc(C)c1 | inactive: 109%
CC(=O)c1ccc(OCC(O)CNCc2ccc3c(c2)OCO3)cc1 (stereo not drawn) | inconclusive: 85.5%
O=C(N/N=C/c1cccnc1)c1cccc(S(=O)(=O)N2CCCC2)c1 | inconclusive: 84%
Cc1cc(C)n(C(=O)c2sc3cc(F)ccc3c2Cl)n1 | inactive: 101%
Cc1ccc(-c2nn(-c3ccccc3)cc2/C=C/C(=O)OCC(=O)NC2CC2)o1 | inconclusive: 95.4%
Cn1c(SCC(=O)N/N=C/C=C\c2ccccc2[N+](=O)[O-])nc2ccccc21 | inactive: 93.4%

Already shown: entries from further up.
Structure (SMILES) | binding response (% of control)
COc1ccccc1C1CCN(c2ccc(CO)cc2[N+](=O)[O-])CC1 | inconclusive: 106%
C=CCn1c(CCC(O)COCCCCC)n[nH]c1=S (stereo not drawn) | inconclusive: 98.6%
CCc1cc2c(=O)c(-c3cnn(-c4ccccc4)c3)c(C)oc2cc1OCC(=O)Nc1cccc(C)c1 | inactive: 109%
CC(=O)c1ccc(OCC(O)CNCc2ccc3c(c2)OCO3)cc1 (stereo not drawn) | inconclusive: 85.5%
O=C(N/N=C/c1cccnc1)c1cccc(S(=O)(=O)N2CCCC2)c1 | inconclusive: 84%

The results go on:

Structure (SMILES) | binding response (% of control)
CN(c1nc2ccccc2n2c(C3CC3)nnc12)S(=O)(=O)c1ccccc1 | inconclusive: 114%
COc1cccc(COCC(O)Cn2cnc3cc(C)c(C)cc32)c1 (stereo not drawn) | inactive: 97.1%
CCCC(=O)Nc1sc(C(=O)Nc2cccc(N)c2)c(C)c1C(=O)OC | inactive: 95.3%
Cc1c(C(=O)NCc2ccccn2)oc2ccc(S(=O)(=O)N3CCC4(CC3)OCCO4)cc12 | inactive: 109%
O=C1CN(C(=O)/C=C/c2cccc(Cl)c2)c2ccccc2N1 | inconclusive: 65.6%
O=C(NNC(=O)c1cccs1)c1ccc2ccccc2c1 | inconclusive: 110%
OC1(c2cccs2)CN(c2ccc(Br)cc2)C2=[N+]1CCCS2 (stereo not drawn) | inconclusive: 95.5%
Cc1ccccc1CNC(=O)CN(c1cccc([N+](=O)[O-])c1)S(C)(=O)=O | inconclusive: 114%
COc1ccc(N(CC(=O)NCCC2=CCCCC2)S(=O)(=O)c2ccccc2F)cc1 | inconclusive: 126%
CC(=O)Nc1c(C)cc(OCC(=O)O)cc1C | inconclusive: 79.1%
Fc1ccccc1/C=N/Nc1nc(-c2ccccn2)nc2ccccc12 | inconclusive: 128%
CN1CCc2c(C#N)c(N3CCOCC3)nc(NCC3CCCO3)c2C1 (stereo not drawn) | inconclusive: 228%
O=S(=O)(c1cccs1)N1CN(C2CCCC2)c2nc3ccccc3nc21 | inconclusive: 24.7%
O=C1CCCN1c1nccs1 | inactive: 105%
Cc1cc(C(=O)CSc2ccc3c(c2)OCCO3)c(C)n1C1CC1 | inactive: 103%
C/C(=N\NC(=S)NCc1ccccc1)c1ccc(C#N)cc1 | inconclusive: 90.8%
COc1ccc(OC)c(/C(O)=C/C(=O)C(=O)Nc2cc(C)cc(C)c2)c1 | inactive: 96.7%
COc1cc(O)c(C(CCN2CCCC(C)C2)c2ccc(N(C)C)cc2)c(OC)c1 (stereo not drawn) | inconclusive: 127%
COc1cc(NC(=O)CSc2nnc(C)s2)cc(OC)c1OC | inactive: 102%
COc1ccc2c(c1)CCCC21NC(=O)N(CC(=O)NC(=O)NCc2ccccc2)C1=O (stereo not drawn) | inactive: 107%
C/C(=N\Nc1ccc(S(=O)(=O)Nc2ccccc2)cc1[N+](=O)[O-])c1ccncc1 | inconclusive: 49.1%
CCOC(=O)N1CCC(N2CCCC(C(=O)c3cccc(OC)c3)C2)CC1 (stereo not drawn) | inconclusive: 115%

Structure (SMILES) | binding response (% of control)
COc1ccc(NC(=O)CC(C)=O)c(OC)c1 | inconclusive: 110%
Cc1ccc(N(CC(=O)NCc2ccco2)C(=O)CCC(=O)Nc2nccs2)cc1 | inconclusive: 112%
O=C(Cc1ccccc1)NNC(=O)c1ccccc1C(=O)O | inconclusive: 117%
O=C(O)c1ccc(-n2ncc3c2/C(=C/c2cccc([N+](=O)[O-])c2)CC3)cc1 | inconclusive: 83.5%
COc1ccc(/C=C(\NC(=O)c2ccco2)C(=O)NCCc2nc3ccccc3[nH]2)cc1 | inconclusive: 105%
c1cc(-n2nnc3cnccc32)ccn1 | inconclusive: 128%
C=Cn1c(C(=O)O)ccc1-c1ccc(CC)cc1 | inconclusive: 109%
CCCCCC(=O)Nc1cccc(C2=NOC3(C2)C[C@@H](C(N)=O)N(C(=O)Cc2ccc([N+](=O)[O-])cc2)C3)c1 (stereo partly drawn) | inconclusive: 94.4%
Clc1ccc(-[n+]2c(-c3cccc(Br)c3)[nH]c3nc4ccccc4nc32)cc1 | inconclusive: 119%
Cc1ccc(Nc2nc(-c3ccc(C)cc3)c(CC(=O)O)s2)cc1 | inconclusive: 98.3%
CCNc1nc(NCC)n2c(SCC(=O)c3ccccc3F)nnc2n1 | inconclusive: 119%
CC1CCN(c2c(NCC3CCC(C(=O)NC4CCCCCC4)CC3)c(=O)c2=O)CC1 (stereo not drawn) | inconclusive: 96.9%
CC(C)(C)C(=O)OCc1nc(-c2ccc(O)c(O)c2)cs1 | inconclusive: 109%
O=C(Nc1ccc(C2=NCCN2)cc1)c1ccc(Cl)c(C(=O)Nc2ccc(C3=NCCN3)cc2)c1 | inconclusive: 145%
O=C(O)COc1ccccc1/C=N/NC(=O)CSc1nc2ccccc2n1Cc1ccc(Cl)cc1 | inconclusive: 90.7%
COc1ccc(N(C(C)C(=O)N/N=C/c2cccnc2)S(C)(=O)=O)cc1 (stereo not drawn) | inactive: 95.1%
O=S(=O)(Nc1ncccn1)c1ccc(NC(=S)NCCc2ccccc2)cc1 | inactive: 94.5%
c1ccc(COc2ccccc2CNc2nn[nH]n2)cc1 | inconclusive: 111%
Cc1c(O)c2ccccc2oc1=O | inconclusive: 90.2%
CC(C)C[C@@H](CSc1ccc(Br)cc1)N1CCN(CCc2ccccc2)CCC1=O | inconclusive: 93.8%
CCCN(CCC)S(=O)(=O)c1cccc(-c2csc(C)n2)c1 | inconclusive: 102%
O=C(O)CCN1C(=O)/C(=C\c2cccc(OCC(=O)Nc3ccc(Cl)cc3)c2)SC1=S | inconclusive: -86.8%

Structure (SMILES) | binding response (% of control)
Cc1cccc(NC(=O)CCC(=O)Nc2nnc(C(F)(F)F)s2)c1 | inconclusive: 82%
Cc1nn(-c2ccccc2)c(Cl)c1/C=N/NC(=O)c1ccccc1F | inconclusive: 67.4%
Cc1cc(C(=O)CN2C(=O)NC3(CCCCC3)C2=O)c(C)n1C | inconclusive: 36.5%
Cc1cc(C)nc(NC=C2C(=O)OC(C)(C)OC2=O)n1 | inconclusive: 88.2%
O=C(O)c1ccc(Cl)c(S(=O)(=O)NCc2cccnc2)c1 | inconclusive: 83.8%
COc1ccc2cc3c(N)nn(C(=O)c4cccc(F)c4)c3nc2c1 | inconclusive: 112%
Cc1ccc2nc(NC3=NC(CC(=O)O)C(=O)N3)nc(C)c2c1 (stereo not drawn) | inconclusive: 124%
COc1ccc(OC)c(/C=N/NC(=O)c2cnccn2)c1 | inconclusive: 268%
OC1CCCN(Cc2ccc3ccc4cccc5ccc2c3c45)C1 (stereo not drawn) | inactive: 135%
COc1ccc(/C=N/NC(=O)c2ccn[nH]2)cc1Cn1nc(C)c([N+](=O)[O-])c1C | inconclusive: 48.3%
CCOc1ccccc1NC(=O)C(NCC1(N2CCCCC2)CCCCC1)c1ccccc1 (stereo not drawn) | inactive: 106%
CN1CCN(c2ccc([N+](=O)[O-])cc2C(=O)c2ccc(Cl)cc2)CC1 | inactive: 98.6%
Cc1cc(C)nc(N2CCC(C(=O)NNC(=O)c3ccc(Cl)cc3)CC2)n1 | inconclusive: 123%
Cc1cc(-c2ccccc2)nc(N(C)C)c1S(C)(=O)=O | inconclusive: 92.3%
O=C(COc1ncnc2ccc(Br)cc12)NCc1ccco1 | inconclusive: 111%
O=C1/C(=C/c2cccc([N+](=O)[O-])c2)CSc2ccc(Cl)cc21 | inconclusive: 129%
Cc1ccc(-c2ccc(OCC(=O)N3CCOCC3)cc2)cc1 | inactive: 104%
COc1cc2c(cc1OC)CN(C(=O)c1ccc(Br)o1)CC2 | inconclusive: -1.41%
COc1ccc(-c2ccccc2)cc1NCc1ccc(OC)c(OC)c1 | inactive: 97.7%
CC(OC(=O)c1cc2sccc2n1C)C(=O)NCC1CCCO1 (stereo not drawn) | inactive: 101%
O=C(NCc1ccc(F)cc1)C(=O)NCC1OCCN1S(=O)(=O)c1ccc2c(c1)OCCO2 (stereo not drawn) | inconclusive: 104%
C=C(C)C(=O)N1CC2(CC(c3cccc(NC(=O)CC(c4ccccc4)c4ccccc4)c3)=NO2)C[C@H]1C(N)=O (stereo partly drawn) | inconclusive: 106%
